Among the data in PMC11601148, “Effects of proline substitution/inclusion on the nanostructure of a self-assembling β-sheet-forming peptide†” (RSC Advances, 2024) are binding values, retold here.

No constants are given. Whether binding was seen depends on the method and setting.

The target of test [1] is FEFKPEFK
Nature of the test: ATR-FTIR spectroscopy; peptide at 40 mg/mL, pH adjusted to ~4; beta-sheet bands at 1636 and 1697 cm^-1; both purified.

In test [2] the target is FEFKPEFK
Briefly: ITC; NaOH (0.0025, 0.0125, 0.025 M) titrated into peptide at 0.1, 0.5 and 1 mg/mL in water, 25 °C; the energy change on deprotonation is read as a sign of self-assembly, no binding constant is fitted; both purified. In general terms: In ITC the heat of successive injections is recorded.

Regarding FEFKPEFK, the binding entry in test [1] is “no binding (tested: 40 mg mL^-1)”; in test [2], “no binding (tested: 0.1, 0.5 and 1 mg mL^-1)”.
